This passage reports binding results from publication PMC2567031.

The chains behind the UniProt entries cited, without tags or fusion partners. Residues count along the entry.
UniProt P56480, residues 47-529: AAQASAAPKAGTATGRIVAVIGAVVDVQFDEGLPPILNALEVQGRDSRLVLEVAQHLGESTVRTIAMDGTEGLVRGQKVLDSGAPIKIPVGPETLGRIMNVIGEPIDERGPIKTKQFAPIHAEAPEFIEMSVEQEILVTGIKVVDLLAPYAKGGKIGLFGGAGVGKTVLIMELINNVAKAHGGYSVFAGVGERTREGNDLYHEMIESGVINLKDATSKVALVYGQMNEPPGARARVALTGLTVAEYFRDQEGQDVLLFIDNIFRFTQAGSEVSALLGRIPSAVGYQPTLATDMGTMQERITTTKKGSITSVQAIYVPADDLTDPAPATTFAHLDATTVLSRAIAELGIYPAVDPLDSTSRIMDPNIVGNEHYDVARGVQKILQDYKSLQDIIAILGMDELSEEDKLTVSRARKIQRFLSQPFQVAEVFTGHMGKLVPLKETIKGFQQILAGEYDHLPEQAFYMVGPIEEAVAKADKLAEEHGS
UniProt P00441, residues 2-154: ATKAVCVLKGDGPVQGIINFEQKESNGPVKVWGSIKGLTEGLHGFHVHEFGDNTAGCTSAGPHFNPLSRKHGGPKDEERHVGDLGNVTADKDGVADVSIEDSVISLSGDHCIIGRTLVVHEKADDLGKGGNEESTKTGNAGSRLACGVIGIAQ

The target of the experiment is ATP synthase β subunit (mouse (endogenous in mouse spinal cord)) (UniProt P56480). Briefly: co-IP; mouse spinal cord extracts; precipitation with antibodies to ATP1A, Hsp/Hsc70 or ATP5B on protein A/G plus-agarose; blots for hSOD1 or uSOD1.

Results are given in words; binding and its absence hold for the method and conditions named. In cells and extracts the contact can be indirect.

For the substance “wild-type human SOD1 with the FLAG sequence (WF SOD1) (from UniProt P00441 2-154)”, the binding result is recorded as “no binding”.
